According to PubChem BioAssay AID493014 (National Center for Advancing Translational Sciences (NCATS), 2011):
The other results are listed elsewhere or left out. The main result of the screen is listed elsewhere. These columns were measured beside it and carry no call. Compounds called inactive in the main read-out are mostly missing here. Potencies come from curve fits of mixed quality, noted in brackets.

Experiment: qHTS Assay to Find Inhibitors of Chronic Active B-Cell Receptor Signaling
Conditions: ABC-DLBCL IkBa-CBG/CBR reporter, luminescence ratio (green luciferase fused to IkBa over red control in TMD8 lymphoma cells), 4 h
Procedure, shortened: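 TMD8 human ABC-DLBCL cells with doxycycline-inducible IκBα–green luciferase fusion and unfused red luciferase, in 0.5% FBS medium; compounds up to 46 uM, 4 h at 37C. Green/red luminescence ratio, filter-overlap corrected, fitted to concentration-response curves.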

[1] = measured here: CBR red luminescence, cell number

| SMILES | AC50 [1] | AC50 (measured here: IkBa-CBG green luminescence) |
| --- | --- | --- |
| CC(CCc1ccccc1)NC(=O)C1CCCN(C(=O)c2cc3sccc3n2C)C1 (configuration not stated) | 3.66 µM [falling, single point] | – |
| O=C(Nc1ccc(Cl)cc1)N1CCSCC1 | 6.51 µM [falling, single point] | – |
| Cc1ccc(S(=O)(=O)Nc2ccc(Cl)cc2C(=O)c2ccc(F)cc2)cc1 | 16.4 µM [falling, single point] | – |
| O=C(COc1ccc2c(-c3ccccc3)cc(=O)oc2c1)Nc1ccc(CN2CCOCC2)cc1 | 0.355 µM [rising, full curve, poor fit] | – |
| Cc1cc(N2CCCCC2)nc2ccc(NC(=O)c3cccc(Cl)c3)cc12 | 35.5 µM [falling, single point] | – |
| O=C(Nc1ccc2c(c1)OCCO2)c1cnccn1 | 29.1 µM [falling, single point] | – |
| Cc1cccc(C(=O)Nc2nc(C)c(C(=O)Nc3ccc4c(c3)CCC4)s2)c1 | 1.26 µM [falling, full curve] | – |
| CCC(=C(c1ccc(OC)cc1)c1ccc(OC)cc1)c1cn(CC(O)CN(CCO)CCO)c2ccccc12 (configuration not stated) | 11.2 µM [falling, partial curve, poor fit] | – |
| CC(C)CCSc1cc(NCCO)c([N+](=O)[O-])c2nonc12 | 35.5 µM [falling, single point] | – |
| O=C1CCCN1CCCN1CC(C(=O)N(CCO)Cc2ccccc2)CCC1=O (configuration not stated) | 5.01 µM [falling, single point] | – |
| C=CCN1C(=O)C(Cc2ccccc2Cl)SC1=Nc1ccc(C(=O)O)cc1 (configuration not stated) | 14.1 µM [falling, single point] | – |
| CCOc1ccc(CCNC(=O)C2CC(C)=CCC2C(=O)O)cc1OCC (configuration not stated) | 14.1 µM [rising, single point] | – |
| NC(=O)c1ccc(NC(=O)COC(=O)CC23CC4CC(CC(Br)(C4)C2)C3)cc1 | 29.1 µM [rising, single point] | – |
| c1ccc(-c2ccc(OCCN3CCOCC3)cc2)cc1 | 3.98 µM [rising, full curve, poor fit] | – |
| CCc1ccc(NC(=O)C(=S)NC2CCCCC2)cc1 | 0.708 µM [rising, full curve] | – |
| CCOC(=O)c1c(NC(=O)C(Sc2ccccc2)c2ccccc2)sc(C(=O)N(C)C)c1C (configuration not stated) | 20.6 µM [rising, single point] | – |
| CCN(CC(=O)NCc1ccc(Cl)cc1)C(=O)CSc1ccc(Br)cc1 | 25.1 µM [falling, single point] | – |
| O=C(NCc1ccccc1Cl)c1ccc2nc[nH]c2c1 | 9.2 µM [falling, partial curve] | – |
| CCN1C(=O)C2C(C1=O)N1C(c3cccs3)C3C(=O)N(CC)C(=O)C3N1C2c1cccs1 (configuration not stated) | 11.2 µM [falling, partial curve, poor fit] | – |
| Cc1ccc(-c2cc(N)n(-c3ccc(F)cc3)n2)cc1 | 10 µM [falling, partial curve, poor fit] | – |
| O=C(Nc1ccccc1)C1=C[C@@H](c2ccc(Br)cc2)C[C@@H](OCc2ccc(CO)cc2)O1 | 14.1 µM [falling, single point] | – |

| SMILES | AC50 [1] | AC50 (measured here: IkBa-CBG green luminescence) |
| --- | --- | --- |
| Cc1c(C(=O)NCC2CCCO2)oc2ccccc12 (configuration not stated) | 29.1 µM [rising, single point] | – |
| Oc1ccc2c(c1)oc1cc(O)ccc12 | 20.6 µM [falling, partial curve, poor fit] | – |
| CC(C)CCNC(=O)c1ccc(-c2ccccc2)cc1 | 4.47 µM [rising, full curve, poor fit] | – |
| O=C(N/N=C/c1cccc([N+](=O)[O-])c1O)c1cccs1 | 2.91 µM [falling, partial curve, poor fit] | – |
| Cc1c(NC(=O)c2cc(-c3ccccc3)nc3ccccc23)c(=O)n(-c2ccccc2)n1C | 2.31 µM [rising, full curve, poor fit] | – |
| NS(=O)(=O)c1ccc(Cl)c(C(=O)Nc2ccccc2[N+](=O)[O-])c1 | 25.1 µM [rising, single point] | 12.6 µM [falling, partial curve, poor fit] |
| Cc1ccc(C)c(OCC(=O)N/N=C/c2ccsc2)c1 | 11.2 µM [rising, partial curve, poor fit] | – |
| Cc1ccc(C)c(N(C(=O)Cn2nnc(-c3cccs3)n2)C(C(=O)NC2CC2)c2ccc(C)o2)c1 (configuration not stated) | 13 µM [falling, single point] | – |
| COc1cccc2c(=O)c(C(=O)NCc3cccs3)c[nH]c12 | 5.01 µM [falling, full curve, poor fit] | – |
| CCOc1ccc(N2C(=O)CC(N(Cc3ccco3)C(=O)CC)C2=O)cc1 (configuration not stated) | 35.5 µM [rising, single point] | – |
| O=C(Nc1ccc(-c2cn3ccccc3n2)cc1)c1cccs1 | 20 µM [falling, single point] | – |
| CC1CCCC(NC(=O)c2ccc3c(c2)NC(=O)CS3)C1C (configuration not stated) | 11.2 µM [falling, partial curve, poor fit] | – |
| O=C(CSc1nnc(-c2ccccn2)o1)Nc1ccccc1F | 7.08 µM [falling, partial curve] | – |
| O=C1NC(=O)/C(=C\c2ccc(OCc3cnc(Cl)s3)cc2)S1 | 28.2 µM [rising, single point] | – |
| O=C(Cn1c(C(=O)NCc2ccco2)cc2sccc21)c1ccccc1 | 29.1 µM [falling, single point] | – |
| O=C(NNC(=O)c1ccc(Br)o1)c1ccc(NC(=O)c2ccccc2)cc1 | 20 µM [rising, partial curve, poor fit] | – |
| Cc1cnc(NC(=O)CSc2nnc(Cc3ccccc3)o2)s1 | 2.59 µM [rising, partial curve, poor fit] | – |
| CN1C(=O)c2ccccc2Sc2ccc(NC(=O)c3ccccc3F)cc21 | 17.8 µM [falling, partial curve, poor fit] | – |
| NNC(=O)[C@H](Cc1ccccc1)NC(=O)Nc1ccc2c(c1)OCCO2 | 35.5 µM [falling, single point] | – |
| COc1ccccc1-n1c(SCC(=O)NC2CCS(=O)(=O)C2)nc2cc([N+](=O)[O-])ccc21 (configuration not stated) | 5.8 µM [falling, full curve] | – |

Already shown: an excerpt of the list.

| SMILES | AC50 [1] | AC50 (measured here: IkBa-CBG green luminescence) |
| --- | --- | --- |
| Cc1c(C(=O)NCC2CCCO2)oc2ccccc12 (configuration not stated) | 29.1 µM [rising, single point] | – |
| Oc1ccc2c(c1)oc1cc(O)ccc12 | 20.6 µM [falling, partial curve, poor fit] | – |
